According to PMC5587910, “Methionine Sulfoxide Reductase A (MsrA) and Its Function in Ubiquitin-Like Protein Modification in Archaea” (mBio, 2017):
Results are given in words; binding and its absence hold for the method and conditions named. Binding seen in cells or lysates may run through a third protein. Here binding means that the protein was enriched with, or labelled near, the bait; the list need not be complete. Where a sequence is shown, tags or fusion partners need not be part of it.

T1: Flag-SAMP1 S85R (Haloferax volcanii) (UniProt D4GUF6)
T1 sequence: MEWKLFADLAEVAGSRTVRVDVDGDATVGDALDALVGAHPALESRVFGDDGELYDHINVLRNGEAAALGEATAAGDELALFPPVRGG

B1: AAA ATPase Cdc48d (protein, UniProt D4GTE0 1-474)
chain: MSERALEVVEFLLTAHLYTDDRTLDENDLPPRYRRVFWADAEDDGDEDDSSAAGIERPLVVTESVARKATGVEHPWDAISDLMFTQREEFSGRLSLTQPEMALEWFVKRADYDRLVTNPTVAKSVEDRDDVDVTHADAREQTRPIHADRVWIDSLLDEYFDDEDDAEMLDLVQVRAPEEIEMTLDDLVLTTDQEGEIHKLMKAIEHREYLADIGLREIGKILFVGPPGTGKTTVSRALAHELGLPFVEVKLSMITSQYLGETAKNVEKTFEVAKRLSPCILFIDEFDSVAKTRRSDEHAALKRAVNTLLKSIDDISLIRDEVILIGATNHPDQLDSAAWRRFDEIVNFPKPDRGMRADILRVITNRMDIDEFDPSAIADVTEGLTGSDLRLVLREAVLEALTEERMELTQDDLLEAVADFEERDNLKNLDMMSDSSELVAGAGSGSDDGHDHSHDHDHTDEHEGETQKDAGAAQ
B2: AAA-type ATPase (CDC48 subfamily) Cdc48a (protein, UniProt D4GWM8 1-743)
chain: MNEVQLEVAKAYPNDSGRGIARLDPDTLLHLKLSPGDIIEIEGGKTTAAKVWRADRQDWNTDTVRIDGFTRQNADVGIGERVTIRKAEATKADKLVLAPPEEASVQFGSDAAGMVKRQILKRPVVERDIVPVMSSTNHPFMRSPGQAIPLIAVETKPEGVVLVTEDTDVELREEPISGFEKAGGGITYEDIGGLTNEIQRVREMVELPMKHPQIFKKLGIEPPQGVLLHGPPGTGKTLLARAVANETSASFFSIAGPEIISKYYGESEQQLREIFEDAKEESPSIIFIDELDSIAPKREDVTGEVERRVVAQLLTMMDGLEARGQVIVIAATNRVDSVDPALRRPGRFDREIEIGVPDEEGRKEILQIHTRGMPLSDDVDLDDLADDTHGFVGADIEALTKEAAMKALRRYLPEIDLDREDIPPSLIDRMVVKNDDFGGALGEVEPSAMREVLVEIPKVTWNDVGGLEGPKQKVQESVEWPLTTPEKFQRMGIEAPKGVLLYGPPGTGKTLIAKAVANETNANFISVRGPQLLSKWVGESEKAIRQTFRKARQVSPTIIFFDELDALAPARGNDMGNNVSERVVNQLLTELDGLEDAGNVMVIAATNRPDMIDPALIRSGRFDRLVLIGQPEEEGREQILDIHTQQSPLAPDVSLREIAEITDGYVGSDLESICREAAIEALREDSDAEEIEMRHFRKAMESVRPTITEELMRYYEDIQDQFKGGSREGLSPDTRDGGRIGFQ
B3: Acetyl-CoA C-acyltransferase AcaB4 (protein, UniProt D4GRI4 1-387)
chain: MRDAYIVGAGQSKYGAFPDESYRSLFATAFEEALGSAGGVEAADIDEAVVGSLGVGGRQLGLSGPAVTEHVGLHGVPCSRIENACAASGYAVRQAVQAVKSGMADVALAGGYEVMTDTSGDVAKYWLGVSGETEWERLTGTTFAGVYAQIASAYLDAYDASPDHFSKVAVKNHANGAKNPKAHLGFECSLDDARSAPVVADPLNLYHCCPTSDGAAAVLVASEGVANACDDAVRVAGVGAASERVGLFQRDSYTAVESSERAAAAAYEMAGLGPDDVDFAEVHDCFAIAELLAYEDLGFCERGHAPELVDSGATELGGDLPVNPSGGLKSKGHPIGATGAGQVVEAFKQLTGRAGDRQVAGASVGLTHNVGGSGGAAVVHVLEGGAL
B4: Aspartate-tRNA (Asp/Asn) ligase AspS (protein, UniProt O24822 1-433)
chain: MRNRTYTADAEPGDTVTVAGWVHEVRDLGGIAFLILRDTSGKIQVKFEKDEMDDDLVETGLGVHRESVISVTGEVDEEPRAPTGVEVTPESLDVIAEAEAQLPLDPSGKVDAELSTRLDNRTLDLRKDEVKAIFEIRAEVQRAVRDKFRDLRATEINTPKIVATGTEGGTELFPITYFGQEAFMNQSPQLFKQLMVGSGLERVFEVGPIFRAEEHNTPRHLNEATSIDFESAFIDHTEAMDVCEAVVTAAYEAVEENCQDELEALGLEEEFERRPRVPAAHLRGGHRAHQRTGELDEQLVWGDDLPTEGEKALGEDVGEHYFITDWPSEIKPFYIKDHDDDETLSTGFDMMHPNMELVSGGQREHRFDHLVAGFEQQGLDPDAFEYYTKMFKYGMPPHAGFGLGGERLIMTMLGLENIREAVLFPRDRQRLSP
B5: Thermosome subunit 2 (protein, UniProt O30560 1-557)
chain: MSQRMQQGQPMIIMGEDAQRVKDRDAQEYNIRAARAVAEAVRSTLGPKGMDKMLVDSMGDVTITNDGVTILKEMDIDNPTAEMIVEVAETQEDEAGDGTTTAVAIAGELLKNAEDLLEQDIHPTAIIRGFNLASEKAREEIDDIAERVDPDDEELLKKVAETSMTGKSSELNKELLADLIVRAVRQVTVEANDGSHVVDLENVSIETQTGRSASESELLTGAVIDKDPVHDDMPVQFDEADVLLLNEPVEVEETDIDTNVSIESPDQLQKFLDQEEAQLKQKVDQIVDSGADVVFCQKGIDDLAQHYLAKQGILAVRRTKKSDIRFLKNITGAAVVSDLDSIEAAVLGRASVRRDEAGELFYVEGIGDDVHGVTLLLRGSTDHVVDELERGVQDALDVVASTVADGRVLAGGGAIEVELASRLRNYADSVSGREQLAVEAYADALELVPRVLAENAGLDSIDTLVDLRAAHEDGQVRAGLNVFTGEVEDAFDAGVVETAHAKEQAVASASEAANLVLKIDDIIAAGDLSTGGDDDEEGGAPGGMGGMGGMGGMGGAM
B6: Pyruvate-ferredoxin oxidoreductase, subunit beta (protein, UniProt D4GXE9 1-312)
chain: MSAFSAIGEETEQDQNEFTPGLEPQPTWCPGCGDFGVLKALKGAAAELGLSPDEMMVTTGIGCSGKLNSYFNSYGFHTIHGRSLPIARAAKLANPGLTVVAAGGDGDGYGIGGNHFMHTARENHDITYIVFNNEIFGLTKGQTSPTSPMGHKSKTQPHGSAKTPLRPLSMSLNAGASYVARTAAVNPNQAKDIIVEAIQHDGFSHVDFLTQCPTWNKDARQYVPYIDINDSDDYEFDNTNRSEASEMMFETENALHEGTVLTGRYYVDEDRPSYQQEKQRIGEMPEEPLAERYFDDSYEWERTFDNFLDKHK
B7: Small archaeal modifier protein 3 (protein, UniProt D4GVB0 1-92)
chain: MELELRFFATFREVVGQKSIYWRVDDDATVGDVLRSLEAEYDGLAGRLIEDGEVKPHVNVLKNGREVVHLDGMATALDDGDAVSVFPPVAGG
B8: Chaperone protein DnaK (protein, UniProt Q1XBW2 1-625)
chain: MASNKILGIDLGTTNSAFAVMEGGDPEIIVNAEGDRTTPSVVAFTDDGERLVGKPAKNQAIQNPERTIRSIKRHMGEDGYTVDIEGEEYTPEQISAMILQKIKRDAEDYLGDELQKAVITVPAYFNDKQRQATKDAGEIAGLDVERIVNEPTAASMAYGLDDESNQTVLVYDLGGGTFDVSVLDLGGGVYEVVATNGDNDLGGDDWDEAIIEWLATEFENDHGIDLREDRQALQRLKDAAEEAKIELSSRKETTINLPFITATDSGPVHLEYDLTRAKFESLTADLIDRTVEPTEQALEDAGYDKGDIDDVILVGGSTRMPQVRDKVEELLGSEPKKSVNPDEAVALGAAIQGGVLGGEVDDIVLLDVTPLSLGIEVKGGLFERLIEKNTTIPTEESKIFTTAADNQTTVQVRVFQGEREMAEDNELLGEFTLSGIPPAPAGTPQIEVGFNIDENGIVNVSAEDKGSGNAESITIEGGAGLSDEEIDRMQQEAEQHAEEDKERRRAVEARNEAEGAVQRAETLLEENEENVDDELRADIEAAVEDVEAVLEDDDASTDELEDVTEELSKELQEIGKRMYQQQAQAQAGGPGGAGAGAGAAGGPGGADPEDFVDADADFDEDDEDN
B9: Type 2 DNA topoisomerase 6 subunit B (protein, UniProt D4GZ00 1-798)
chain: MTSFQSTLGDEPGIAEELAKGQREISIAEFFEKNKHMLGFDSGARGLVTAVKEAVDNALDATEEAGIQPDIYVEIAEAGDYYRLVIEDNGPGITKEQVPKVFGKLLYGSRFHAREQSRGQQGIGISAAVLYSQLTSGKPAKVTSRTQGSEDAEYFELVINTDQNEPEIRTEKTTSWDRPHGTRIELEMEANMRARQQLHDYILHTAVVNPHARIELREPGLDEPMKFERATDQLPKQTKEIRPHPHGVELGTLLKMLSATESYSVSGFLQEEFTRVGAKTSDKIHDAFRDRHFGREMTWRTPDASEADDLVAVVEDAVANKGKEATAAFADELVDIVVGKDRIAHGELVTVVENAAETVGEDTDTSFGETVRENVVEALWPALTDDREGDAYAIVDDVTTTQKDDAGKLSMARSIATQFAETTGPADRATRDDVAEFVSWAADRTKEREDETYGETAQENIADAIWSRMRTVSDEVPKVREVADDRDVARDLLDAMRETDILAPPTDCLSPISAELVEAGLKKEFDADFYAAATRDAEVHGGDPFIVEAGIAYGGELKSEGKIDLLRFANRVPLVYQQGACTITHVVKDIGWRNYGLDQPGGSGMPNGPAVLMVHVASTNVPFTSESKDALADVPAIQDEVELAIREAARDLKSYLSKRRSLQKRREKQDVLGRILPQMATKLSEVTGRPEPNIDGALGRIMNNLTVERAVDDGEVTLTVTNHSNTNESPDITDIVSAEPGGLDGEATVVGLDGEWFVKWNPEVPSGETATLTYSVAQDASFDINVDGVETEKLTVNV
B10: Probable urocanate hydratase HutU (protein, UniProt D4GRM3 1-620)
chain: MHDQQSSARRDRLGDPSDEWRAYQGAPTGTDIECKGWRQEAALRMLNNNLDPEVAERPEDLVVYGGTGRAARSWDAYDAILTELRDLDDDETLLVQSGKPVGTFPTHERAPRVLIANSNLVGRWDDWEHFHELEAEGKIMYGQMTAGSWAYIGTQGIIQGTYETLAELARQRYDADLRGKLVVTGGLGGMSGAQPLAVTMNRGVCIAAEVQADRIERRVETDYLMEFADSLDEALENANAAIDAGEPYSVGVQMNAADMLEELLARDEIPDVVTDQTSAHDELEGYYPSGYTVAEADRLREDDPEKYVDASLDTMERHVQAILDLQDAGAIAFEYGNNIRGQVQNHRGMTTAFDFPGFVPAYIRPMFCRGRGPFRWAALSGDPADIHRTDEAIRELFPEHESLMRWIDLAQEQVSFQGLPSRVCWLGYATDDEGLTERARFALKINDLVASGEVSAPVVVTRDHLDAGSVASPYRETEAMRDGTDAVADWPILNALLNTAAGADIVSVHDGGGVGIGNSLHANNHVVLDGSDLAAKKARAVFTTDPGMGVIRHADAGYEDALDEATRSNVRIPMRDHDAAARTERSERSERSERADRADRTAEDGGHATETGESAGRGDE

These molecules were tested against T1, Flag-SAMP1 S85R (Haloferax volcanii) (assay: affinity purification with mass spectrometry; Flag-SAMP1 S85R expressed in Hfx. volcanii H26 (parent) grown with 100 mM DMSO; lysate (2 M NaCl, 1% Triton X-100, 1 mM EDTA) on anti-Flag M2 beads, washed in TBS, eluted with 3x Flag peptide; reducing SDS-PAGE, gel regions of 30 to 45 and 60 to 200 kDa analysed by LC-MS/MS; ΔmsrA strain in …).

binding	Molecule
binds	Aldehyde dehydrogenase AldH2 (Haloferax volcanii (endogenous in H26))
binds	Ferritin related (IPR012347) protein (Haloferax volcanii (endogenous in H26))
binds	Peptidase S9, prolyl oligopeptidase active site domain protein (Haloferax volcanii (endogenous in H26))
binds	Methionine-S-sulfoxide reductase MsrA (Haloferax volcanii (endogenous in H26)) (enzyme)
binds	B1
binds	B2
binds	B3
binds	B4
binds	B5
binds	B6
binds	B7
binds	B8
binds	B9
binds	B10
